From the supplement of paper PMC10689618
The list shows a part of the results. Repeats are few or missing, and single values can be far off.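 Labelled rat cortical synaptosomes were engulfed by primary human fetal astrocytes. Engulfment equaled a red/green ratio, corrected for calcein live-cell signal and normalized to the plate median. Compounds were toxic when calcein dropped over 30%, and reduced phagocytosis when below 70% of the median above 5 µM.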

Assays:
Conditions in all cases: 24 h
Human fetal astrocytes [1] = assay: loss of total cells relative to no-compound high-control median (toxicity); higher = more toxic (fewer cells)
Human fetal astrocytes [2] = assay: synaptosome phagocytosis (pHrodo/calcein intensity ratio) relative to plate median of data wells; higher = more phagocytosis
Human fetal astrocytes [3] = assay: as above; remark: listed apart in the source

Question: For `C[C@@H]1O[C@@H](O[C@H]2CC[C@]3(C=O)[C@H]4CC[C@]5(C)[C@@H](C6=CC(=O)OC6)CC[C@]5(O)[C@@H]4CC[C@]3(O)C2)[C@H](O)[C@H](O)[C@H]1O`, which “loss of total cells” value (Human fetal astrocytes [1]; 1.39 µM) is on record?
Answer: -1.6%

Question: And the “loss of total cells” value (Human fetal astrocytes [1]; 2.78 µM)?
Answer: 2.5%

Question: What about the “loss of total cells” value (Human fetal astrocytes [1]; 5.56 µM) of the same compound?
Answer: 11%

Question: And the “loss of total cells” value (Human fetal astrocytes [1]; 11.11 µM)?
Answer: 16.9%

Question: What about the “loss of total cells” value (Human fetal astrocytes [1]; 22.22 µM) of the same compound?
Answer: 5.2%

Question: Which synaptosome phagocytosis (Human fetal astrocytes [2]; 1.39 µM) does the source give for `C=C(C)[C@@H]1[C@H]2OC(=O)[C@@H]1[C@]1(O)C[C@H]3OC34C(=O)O[C@H]2[C@@]41C.CC(C)(O)[C@@H]1[C@H]2OC(=O)[C@@H]1[C@]1(O)C[C@H]3OC34C(=O)O[C@H]2[C@@]41C` (stereo not given in full) [Picrotoxin] here?
Answer: 84.2%

Question: What about the synaptosome phagocytosis (Human fetal astrocytes [2]; 2.78 µM) of the same compound?
Answer: 123%

Question: And the synaptosome phagocytosis (Human fetal astrocytes [2]; 5.56 µM)?
Answer: 97.9%

Question: And the synaptosome phagocytosis (Human fetal astrocytes [2]; 11.11 µM)?
Answer: 77.4%

Question: What about the synaptosome phagocytosis (Human fetal astrocytes [2]; 22.22 µM) of the same compound?
Answer: 137%

Question: What does the source list for `C=C(C)[C@@H]1[C@H]2OC(=O)[C@@H]1[C@]1(O)C[C@H]3O[C@]34C(=O)O[C@H]2[C@]14C`?
Answer: synaptosome phagocytosis (Human fetal astrocytes [3]; 1.39 µM): 83.1%; synaptosome phagocytosis (Human fetal astrocytes [3]; 2.78 µM): 108%; synaptosome phagocytosis (Human fetal astrocytes [3]; 5.56 µM): 139%; synaptosome phagocytosis (Human fetal astrocytes [3]; 11.11 µM): 130%; synaptosome phagocytosis (Human fetal astrocytes [3]; 22.22 µM): 136%

Question: Which results are given for `CC(=O)Oc1ccc(Cl)c2cccnc12`?
Answer: synaptosome phagocytosis (Human fetal astrocytes [3]; 1.39 µM): 124%; synaptosome phagocytosis (Human fetal astrocytes [3]; 2.78 µM): 110%; synaptosome phagocytosis (Human fetal astrocytes [3]; 5.56 µM): 82.1%; synaptosome phagocytosis (Human fetal astrocytes [3]; 11.11 µM): 90.1%; synaptosome phagocytosis (Human fetal astrocytes [3]; 22.22 µM): 55.9%
